Results as given in the supplement of paper PMC10849652.
This is one part of the list.

Protein sequences, listed by entry. Tags and fused reporters are not part of them. Lines headed by an entry give the natural chain unless they say otherwise; changes in a name come on top.
UniProt Q6P9F7: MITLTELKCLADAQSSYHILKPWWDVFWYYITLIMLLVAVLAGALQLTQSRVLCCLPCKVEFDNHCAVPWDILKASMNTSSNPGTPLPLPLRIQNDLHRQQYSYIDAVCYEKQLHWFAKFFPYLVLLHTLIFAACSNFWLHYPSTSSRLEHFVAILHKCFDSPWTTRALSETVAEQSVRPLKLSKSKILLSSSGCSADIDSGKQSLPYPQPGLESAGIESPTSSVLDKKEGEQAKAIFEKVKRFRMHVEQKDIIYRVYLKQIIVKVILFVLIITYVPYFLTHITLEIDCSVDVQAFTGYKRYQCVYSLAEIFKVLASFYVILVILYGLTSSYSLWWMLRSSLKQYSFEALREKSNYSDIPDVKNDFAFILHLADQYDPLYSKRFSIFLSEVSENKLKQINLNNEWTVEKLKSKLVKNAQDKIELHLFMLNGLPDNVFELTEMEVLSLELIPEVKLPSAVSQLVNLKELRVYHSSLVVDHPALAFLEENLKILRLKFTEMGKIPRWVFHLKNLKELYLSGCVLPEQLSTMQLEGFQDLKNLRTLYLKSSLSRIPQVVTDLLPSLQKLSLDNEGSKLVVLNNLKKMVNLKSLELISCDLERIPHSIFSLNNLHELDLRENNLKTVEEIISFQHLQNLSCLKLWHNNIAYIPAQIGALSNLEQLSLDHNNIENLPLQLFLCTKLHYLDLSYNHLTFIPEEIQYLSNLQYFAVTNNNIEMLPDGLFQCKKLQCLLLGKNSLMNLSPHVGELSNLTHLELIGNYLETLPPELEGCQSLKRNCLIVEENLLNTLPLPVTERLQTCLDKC
UniProt Q7Z4F1: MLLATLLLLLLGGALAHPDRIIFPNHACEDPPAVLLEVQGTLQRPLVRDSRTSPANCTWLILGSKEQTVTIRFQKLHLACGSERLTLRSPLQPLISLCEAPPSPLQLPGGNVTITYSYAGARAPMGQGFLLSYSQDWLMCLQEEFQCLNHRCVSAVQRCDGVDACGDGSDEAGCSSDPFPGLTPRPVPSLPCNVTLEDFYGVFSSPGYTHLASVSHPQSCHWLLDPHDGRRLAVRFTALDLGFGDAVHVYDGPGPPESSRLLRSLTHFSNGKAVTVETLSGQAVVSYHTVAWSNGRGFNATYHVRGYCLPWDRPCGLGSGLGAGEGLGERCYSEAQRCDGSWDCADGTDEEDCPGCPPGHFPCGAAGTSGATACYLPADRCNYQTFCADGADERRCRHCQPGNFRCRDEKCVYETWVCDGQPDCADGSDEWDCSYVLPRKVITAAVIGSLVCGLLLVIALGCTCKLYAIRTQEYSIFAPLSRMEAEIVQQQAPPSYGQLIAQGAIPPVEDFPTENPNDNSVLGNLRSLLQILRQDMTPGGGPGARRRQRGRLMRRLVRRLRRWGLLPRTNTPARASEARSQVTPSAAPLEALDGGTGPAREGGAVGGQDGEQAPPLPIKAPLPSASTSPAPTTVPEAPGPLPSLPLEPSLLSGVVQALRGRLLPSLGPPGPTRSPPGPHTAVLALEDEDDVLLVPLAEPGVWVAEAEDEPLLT
UniProt Q6P1M3: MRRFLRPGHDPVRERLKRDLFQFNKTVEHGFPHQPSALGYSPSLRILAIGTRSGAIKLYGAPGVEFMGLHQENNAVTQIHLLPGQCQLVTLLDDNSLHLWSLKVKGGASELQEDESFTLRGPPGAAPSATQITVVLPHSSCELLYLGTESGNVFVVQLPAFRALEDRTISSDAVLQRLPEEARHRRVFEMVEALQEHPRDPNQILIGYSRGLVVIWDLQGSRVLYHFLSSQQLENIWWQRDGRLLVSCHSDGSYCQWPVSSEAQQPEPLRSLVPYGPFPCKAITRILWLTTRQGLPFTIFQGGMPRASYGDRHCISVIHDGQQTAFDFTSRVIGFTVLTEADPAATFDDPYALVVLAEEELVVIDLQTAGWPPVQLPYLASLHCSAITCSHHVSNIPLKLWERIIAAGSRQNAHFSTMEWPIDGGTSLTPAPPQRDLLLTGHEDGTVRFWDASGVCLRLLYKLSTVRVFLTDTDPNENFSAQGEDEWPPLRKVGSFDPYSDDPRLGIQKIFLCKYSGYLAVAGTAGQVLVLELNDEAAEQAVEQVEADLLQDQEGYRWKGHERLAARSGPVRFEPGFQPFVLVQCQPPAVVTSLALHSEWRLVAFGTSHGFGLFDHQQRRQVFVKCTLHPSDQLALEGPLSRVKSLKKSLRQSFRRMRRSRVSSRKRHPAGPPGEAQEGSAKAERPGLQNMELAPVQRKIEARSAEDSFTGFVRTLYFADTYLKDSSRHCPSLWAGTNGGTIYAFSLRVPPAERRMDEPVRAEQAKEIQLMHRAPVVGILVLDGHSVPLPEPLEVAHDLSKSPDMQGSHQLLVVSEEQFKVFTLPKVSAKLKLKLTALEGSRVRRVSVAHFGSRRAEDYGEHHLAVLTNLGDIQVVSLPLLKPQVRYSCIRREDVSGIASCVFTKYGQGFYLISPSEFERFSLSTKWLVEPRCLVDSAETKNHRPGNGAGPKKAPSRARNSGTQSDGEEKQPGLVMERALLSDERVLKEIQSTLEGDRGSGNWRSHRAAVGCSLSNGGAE
UniProt Q9Y4Y9: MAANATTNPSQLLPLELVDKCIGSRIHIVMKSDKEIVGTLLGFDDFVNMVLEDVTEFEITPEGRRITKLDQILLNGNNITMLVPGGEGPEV
UniProt Q9P244: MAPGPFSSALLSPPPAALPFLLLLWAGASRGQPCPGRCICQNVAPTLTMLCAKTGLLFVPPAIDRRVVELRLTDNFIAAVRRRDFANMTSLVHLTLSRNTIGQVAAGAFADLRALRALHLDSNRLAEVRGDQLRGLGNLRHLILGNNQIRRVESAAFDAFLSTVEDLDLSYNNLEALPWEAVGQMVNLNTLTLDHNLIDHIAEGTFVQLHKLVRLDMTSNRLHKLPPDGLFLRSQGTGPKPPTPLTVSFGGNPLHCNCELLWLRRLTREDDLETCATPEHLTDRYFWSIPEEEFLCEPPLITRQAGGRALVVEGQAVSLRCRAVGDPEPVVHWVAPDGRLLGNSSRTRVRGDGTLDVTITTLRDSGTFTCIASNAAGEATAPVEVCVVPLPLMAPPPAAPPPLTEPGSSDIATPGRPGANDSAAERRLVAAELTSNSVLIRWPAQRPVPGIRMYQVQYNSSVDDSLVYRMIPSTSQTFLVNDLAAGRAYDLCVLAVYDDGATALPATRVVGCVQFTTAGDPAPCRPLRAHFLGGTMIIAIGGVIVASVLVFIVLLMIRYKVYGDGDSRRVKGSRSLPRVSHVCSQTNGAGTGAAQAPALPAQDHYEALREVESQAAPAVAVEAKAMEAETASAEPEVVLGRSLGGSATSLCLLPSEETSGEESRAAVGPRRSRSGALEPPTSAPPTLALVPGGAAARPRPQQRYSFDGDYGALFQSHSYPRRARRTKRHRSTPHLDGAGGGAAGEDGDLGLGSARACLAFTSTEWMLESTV
UniProt Q5SW96: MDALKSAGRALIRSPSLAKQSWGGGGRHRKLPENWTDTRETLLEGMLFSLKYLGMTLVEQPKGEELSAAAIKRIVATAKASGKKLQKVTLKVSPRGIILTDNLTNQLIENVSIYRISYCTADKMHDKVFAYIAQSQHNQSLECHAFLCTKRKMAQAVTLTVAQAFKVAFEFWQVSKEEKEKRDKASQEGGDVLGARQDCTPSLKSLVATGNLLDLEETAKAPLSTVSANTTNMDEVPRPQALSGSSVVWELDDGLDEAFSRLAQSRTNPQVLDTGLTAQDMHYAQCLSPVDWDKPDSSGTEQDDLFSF
UniProt O95214: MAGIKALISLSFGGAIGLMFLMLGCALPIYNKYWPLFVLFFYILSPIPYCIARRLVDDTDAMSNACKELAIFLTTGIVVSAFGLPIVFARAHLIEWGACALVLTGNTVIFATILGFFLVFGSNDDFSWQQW
UniProt Q8N3X6: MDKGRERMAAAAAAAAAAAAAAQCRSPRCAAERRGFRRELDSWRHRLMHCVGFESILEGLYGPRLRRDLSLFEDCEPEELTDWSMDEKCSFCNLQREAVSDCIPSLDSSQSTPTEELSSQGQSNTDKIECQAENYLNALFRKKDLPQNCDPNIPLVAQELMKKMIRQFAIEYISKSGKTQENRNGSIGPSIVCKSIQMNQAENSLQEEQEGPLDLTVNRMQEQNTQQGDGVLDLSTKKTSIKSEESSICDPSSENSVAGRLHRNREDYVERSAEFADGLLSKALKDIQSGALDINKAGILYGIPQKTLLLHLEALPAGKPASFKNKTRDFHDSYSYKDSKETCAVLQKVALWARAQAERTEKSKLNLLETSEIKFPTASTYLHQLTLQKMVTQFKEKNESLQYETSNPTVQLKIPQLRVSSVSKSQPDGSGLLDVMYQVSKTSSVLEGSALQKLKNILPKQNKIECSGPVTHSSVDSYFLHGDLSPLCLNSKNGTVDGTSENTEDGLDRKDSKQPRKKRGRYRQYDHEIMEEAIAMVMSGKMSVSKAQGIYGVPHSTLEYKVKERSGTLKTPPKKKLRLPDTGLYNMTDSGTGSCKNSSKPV
UniProt P07864: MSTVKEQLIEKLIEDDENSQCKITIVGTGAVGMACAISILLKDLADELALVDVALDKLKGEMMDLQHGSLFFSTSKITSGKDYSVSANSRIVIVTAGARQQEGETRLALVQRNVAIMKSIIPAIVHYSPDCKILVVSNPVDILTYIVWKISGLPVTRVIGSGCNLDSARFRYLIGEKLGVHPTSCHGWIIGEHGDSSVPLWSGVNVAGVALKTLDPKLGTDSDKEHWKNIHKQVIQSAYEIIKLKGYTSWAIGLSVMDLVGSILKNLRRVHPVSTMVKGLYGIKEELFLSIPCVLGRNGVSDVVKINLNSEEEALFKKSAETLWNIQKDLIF
UniProt P49916: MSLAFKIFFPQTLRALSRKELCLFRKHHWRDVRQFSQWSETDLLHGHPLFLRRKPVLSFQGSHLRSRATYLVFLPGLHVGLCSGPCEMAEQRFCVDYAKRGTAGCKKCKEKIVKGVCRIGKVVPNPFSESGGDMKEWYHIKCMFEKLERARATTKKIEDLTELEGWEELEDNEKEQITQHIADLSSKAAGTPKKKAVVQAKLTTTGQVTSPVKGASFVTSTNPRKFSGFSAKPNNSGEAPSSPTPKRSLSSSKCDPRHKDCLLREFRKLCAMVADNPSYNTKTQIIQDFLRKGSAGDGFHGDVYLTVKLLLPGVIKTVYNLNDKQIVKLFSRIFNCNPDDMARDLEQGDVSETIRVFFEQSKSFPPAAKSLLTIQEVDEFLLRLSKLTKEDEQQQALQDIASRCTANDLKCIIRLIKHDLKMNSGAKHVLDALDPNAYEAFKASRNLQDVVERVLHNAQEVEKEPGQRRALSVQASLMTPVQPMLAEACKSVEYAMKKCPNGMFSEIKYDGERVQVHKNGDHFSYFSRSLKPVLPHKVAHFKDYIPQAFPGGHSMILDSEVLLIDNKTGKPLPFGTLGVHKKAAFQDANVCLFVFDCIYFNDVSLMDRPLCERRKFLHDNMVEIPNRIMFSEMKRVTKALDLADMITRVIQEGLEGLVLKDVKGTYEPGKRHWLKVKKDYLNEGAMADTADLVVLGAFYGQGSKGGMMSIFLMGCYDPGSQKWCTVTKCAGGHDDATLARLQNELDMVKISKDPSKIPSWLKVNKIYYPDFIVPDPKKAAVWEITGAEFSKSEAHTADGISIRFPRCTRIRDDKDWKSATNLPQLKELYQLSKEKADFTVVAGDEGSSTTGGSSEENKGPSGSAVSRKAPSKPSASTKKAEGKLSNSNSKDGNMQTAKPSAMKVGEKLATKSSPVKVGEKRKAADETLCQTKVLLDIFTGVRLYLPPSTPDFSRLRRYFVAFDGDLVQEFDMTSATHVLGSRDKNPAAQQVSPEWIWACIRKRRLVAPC
UniProt P61968: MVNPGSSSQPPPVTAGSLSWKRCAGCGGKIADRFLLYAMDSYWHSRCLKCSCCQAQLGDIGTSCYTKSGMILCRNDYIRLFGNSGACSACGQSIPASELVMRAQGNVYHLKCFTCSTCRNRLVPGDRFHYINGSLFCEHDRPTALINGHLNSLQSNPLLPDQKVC
UniProt Q03252: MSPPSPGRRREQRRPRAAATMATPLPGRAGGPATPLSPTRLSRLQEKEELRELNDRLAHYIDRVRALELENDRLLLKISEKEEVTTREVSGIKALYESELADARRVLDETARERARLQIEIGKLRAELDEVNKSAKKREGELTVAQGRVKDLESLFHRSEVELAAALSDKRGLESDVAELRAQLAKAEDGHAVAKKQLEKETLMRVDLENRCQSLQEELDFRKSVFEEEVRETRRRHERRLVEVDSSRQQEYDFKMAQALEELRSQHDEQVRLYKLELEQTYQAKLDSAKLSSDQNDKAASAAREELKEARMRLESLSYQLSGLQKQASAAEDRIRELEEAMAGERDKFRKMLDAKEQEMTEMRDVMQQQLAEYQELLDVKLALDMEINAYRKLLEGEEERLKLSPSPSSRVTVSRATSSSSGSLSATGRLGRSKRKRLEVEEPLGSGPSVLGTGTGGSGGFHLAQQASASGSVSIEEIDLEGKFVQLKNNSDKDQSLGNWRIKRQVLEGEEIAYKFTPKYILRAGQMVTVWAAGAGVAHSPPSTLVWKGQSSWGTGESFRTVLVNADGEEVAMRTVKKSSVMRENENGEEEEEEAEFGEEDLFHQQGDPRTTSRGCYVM

Key:
Test in all cases: log2 fold change, soluble protein after heating vs DMSO (PISA); higher = thermal stabilisation; K562 lysate, 10 uM; active = over 0.2 and 3.5 SD of the protein, either way, in both replicates (recomputed)
erlotinib = compound: C#Cc1cccc(Nc2ncnc3cc(OCCOC)c(OCCOC)cc23)c1 [erlotinib]
Procedure, shortened: (§1)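 Soluble protein was defined as the supernatant remaining after 21,000xg for 90 min, following pooling of heated aliquots and adjustment to 0.5% NP-40 at 4°C. Before that, crude K562 extract at 1 mg/mL protein in PBS pH 7.4 with 1 mM MgCl2 was treated with 10 μM compound for 30 min and heated for 3 min across 48°C-58°C. Quantification used TMTpro 16plex LC-MS/MS with channel sums equalised, and values are log-two fold changes in thermal stability relative to solvent controls from duplicates.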

[1] = compound: C/C(=N\NC(=O)C1=CC(=CC=C1)S(=O)(=O)N2CCOCC2)/C3=C(C=CC(=C3)Cl)O
Procedure, shortened: as §1

[2] = compound: C1=CC(=CC=C1C2=NC3=C(N2)C=C(C=C3)C(=O)N)OC4=CC=C(C=C4)Cl
Procedure, shortened: as §1

[3] = compound: C1=CC2=C(C=CC(=C2)/C=C\3/C(=O)NC(=NCC4=CC=CS4)S3)N=C1
Procedure, shortened: as §1

[4] = compound: C1=CC2=NC=CN=C2C=C1/C=C/3\C(=O)NC(=O)S3
Procedure, shortened: as §1

[5] = compound: C1=CC=C(C=C1)C2=NC(=C(N2)C3=CC=NC=C3)C4=CC(=C(C=C4)Cl)O
Procedure, shortened: as §1

[6] = compound: C1=CC=C2C(=C1)C3=NNC4=CC=CC(=C43)C2=O
Procedure, shortened: as §1

[7] = compound: C1CCN(C1)C(=O)NC2=CC=CC(=C2)NC3=NC=C(C(=N3)NCCC4=CN=CN4)Br
Procedure, shortened: as §1

[8] = compound: C1CN(CCC1(CC2=CC=C(C=C2)Cl)N)C3=NC=NC4=C3C=CN4
Procedure, shortened: as §1

IRAK-1-4 Inhibitor I = compound: C1COCCN1CCN2C3=CC=CC=C3N=C2NC(=O)C4=CC(=CC=C4)[N+](=O)[O-] [IRAK-1-4 Inhibitor I]
Procedure, shortened: as §1

ibrutinib = compound: C=CC(=O)N1CCC[C@@H](n2nc(-c3ccc(Oc4ccccc4)cc3)c3c(N)ncnc32)C1 [ibrutinib]
Procedure, shortened: as §1

[9] = compound: CC(=O)c1cnc2ccc(-c3cc(Cl)c(O)c(Cl)c3)nc2c1N[C@H]1CC[C@H](CN(C)C)CC1
Procedure, shortened: as §1

ralimetinib = compound: CC(C)(C)Cn1c(N)nc2ccc(-c3[nH]c(C(C)(C)C)nc3-c3ccc(F)cc3)nc21 [ralimetinib]
Procedure, shortened: as §1

[10] = compound: CC(C)(O)CC(=O)NCCn1ccc2ncnc(Nc3ccc(Oc4cccc(C(F)(F)F)c4)c(Cl)c3)c21
Procedure, shortened: as §1

[11] = compound: CC(C)C1=C2N=C(C=C(N2N=C1)NCC3=CC=CC=C3)NCCCCCCN
Procedure, shortened: as §1

[12] = compound: CC1=C(C(CC(=O)N1)C2=CC=C(C=C2)C(F)(F)F)C(=O)NC3=C(C=C4C(=C3)C=NN4)F
Procedure, shortened: as §1

[13] = compound: CC1=C(C2=C(C=C1)C(=O)C3=CC=CC=C3N2CCCN)C
Procedure, shortened: as §1

[14] = compound: CC1=C(C=C(C=C1)NC(=O)C2=CC(=CC=C2)C(C)(C)C#N)NC3=CC4=C(C=C3)N=CN(C4=O)C
Procedure, shortened: as §1

[15] = compound: CC1=C(C=C(C=C1)NC(=O)C2=CC(=CC=C2)N(C)C)NC(=O)C3=CC=C(C=C3)O
Procedure, shortened: as §1

[16] = compound: CC1=CC=C(C=C1)SC2=C3C=C(SC3=CN=C2)C(=O)N
Procedure, shortened: as §1

Measured: log2 fold change

LRRC8C (UniProt Q8TDW0)
inactive: erlotinib -0.087 | [1] -0.033 | [2] -0.041 | [3] -0.016 | [4] -0.074 | [5] 0.105 | [6] -0.053 | [7] 0.046 | [8] 0.031 | IRAK-1-4 Inhibitor I 0.057 | ibrutinib 0.126 | [9] -0.027 | ralimetinib 0.108 | [10] -0.052 | [11] 0.082 | [12] -0.119 | [13] -0.149 | [14] 0.022 | [15] 0.018 | [16] 0.058

LCMT2 (UniProt O60294)
inactive: erlotinib 0.129 | [1] 0.035 | [2] -0.012 | [3] -0.075 | [4] 0.042 | [5] -0.059 | [6] -0.014 | [7] 0.071 | [8] -0.003 | IRAK-1-4 Inhibitor I -0.036 | ibrutinib -0.02 | [9] 0.003 | ralimetinib 0.083 | [10] -0.091 | [11] 0.218 | [12] 0.003 | [13] -0.078 | [14] 0.035 | [15] -0.035 | [16] 0.036

LRRC8B (UniProt Q6P9F7)
inactive: erlotinib 0.078 | [1] 0.106 | [2] -0.011 | [3] 0.268 | [4] -0.011 | [5] -0.002 | [6] -0.062 | [7] -0.002 | [8] -0.014 | IRAK-1-4 Inhibitor I 0.035 | ibrutinib 0.138 | [9] 0.182 | ralimetinib -0.032 | [10] -0.037 | [11] -0.099 | [12] -0.091 | [13] 0.059 | [14] -0.083 | [15] -0.002 | [16] -0.146

LRFN4 (UniProt Q6PJG9)
inactive: erlotinib 0.017 | [1] 0.015 | [2] 0.003 | [3] -0.075 | [6] 0.045 | [7] 0.005 | [8] -0.034 | [9] -0.078 | [11] -0.066 | [13] 0.095 | [14] -0.121 | [16] -0.133

LRP10 (UniProt Q7Z4F1)
inactive: erlotinib -0.028 | [2] -0.109 | [4] -0.097 | [5] 0.234 | [7] -0.061 | [8] -0.057 | IRAK-1-4 Inhibitor I -0.103 | ibrutinib 0.029 | ralimetinib -0.007 | [10] 0.083 | [11] -0.208 | [13] -0.074 | [15] -0.089

LMAN2L isoform 2 (UniProt Q9H0V9)
inactive: erlotinib 0.022 | [1] 0.005 | [2] 0.001 | [3] 0.038 | [4] 0.033 | [5] -0.021 | [6] 0.025 | [7] -0.008 | [8] -0.019 | IRAK-1-4 Inhibitor I 0.031 | ibrutinib -0.006 | [9] 0.023 | ralimetinib -0.001 | [10] -0.021 | [11] -0.021 | [12] -0.028 | [13] 0.021 | [14] 0.042 | [15] -0.003 | [16] 0.055

LLGL2 (UniProt Q6P1M3)
inactive: erlotinib -0.4 | [1] 0.236 | [2] -0.094 | [3] 0.284 | [6] 0.005 | [7] 0.058 | [8] -0.398 | [9] 0.041 | [11] 0.209 | [12] -0.119 | [13] 0.021 | [14] -0.217 | [16] 0.046

LSM5 (UniProt Q9Y4Y9)
inactive: erlotinib -0.241 | [1] 0.027 | [2] -0.154 | [3] -0.001 | [4] -0.021 | [5] -0.216 | [6] 0 | [7] 0 | [8] -0.203 | IRAK-1-4 Inhibitor I -0.031 | ibrutinib -0.098 | [9] 0.014 | ralimetinib 0.048 | [10] 0.018 | [11] 0.068 | [13] -0.009 | [14] -0.062 | [15] 0.144 | [16] -0.238

LRFN1 (UniProt Q9P244)
inactive: erlotinib 0.124 | [1] -0.004 | [2] -0.099 | [3] 0.145 | [4] -0.215 | [5] -0.083 | [6] -0.049 | [7] -0.081 | [8] 0.312 | IRAK-1-4 Inhibitor I -0.126 | ibrutinib 0.168 | [9] -0.041 | ralimetinib 0.16 | [10] 0.057 | [11] -0.038 | [12] -0.038 | [13] -0.046 | [14] 0.037 | [15] 0.09 | [16] 0.003

LDLRAP1 (UniProt Q5SW96)
inactive: erlotinib 0.081 | [1] -0.142 | [2] -0.035 | [3] 0.125 | [4] -0.024 | [5] -0.028 | [6] -0.001 | [7] -0.025 | [8] -0.007 | IRAK-1-4 Inhibitor I 0.032 | ibrutinib 0.125 | ralimetinib 0.01 | [10] 0.031 | [11] -0.056 | [12] -0.026 | [13] 0.047 | [14] -0.012 | [15] 0.066

LEPROT (UniProt O15243)
inactive: erlotinib 0.176 | [2] -0.116 | [4] -0.02 | [5] -0.064 | [7] 0.122 | [8] 0.045 | IRAK-1-4 Inhibitor I -0.036 | ibrutinib 0.005 | [9] -0.273 | ralimetinib -0.034 | [10] 0.054 | [11] 0.267 | [14] 0.181 | [15] 0.016 | [16] 0

LRRC8A (UniProt Q8IWT6)
inactive: erlotinib 0.018 | [1] 0.026 | [2] 0.005 | [3] -0.007 | [4] -0.046 | [5] 0.003 | [6] 0.035 | [7] -0.056 | [8] 0.033 | IRAK-1-4 Inhibitor I 0.014 | ibrutinib 0.031 | [9] 0.031 | ralimetinib -0.001 | [10] -0.034 | [11] -0.05 | [12] 0.043 | [13] -0.011 | [14] -0.014 | [15] 0.005 | [16] 0.003

Looked up one by one from above (two):
LRRC8C (UniProt Q8TDW0)
inactive: erlotinib -0.087 | [1] -0.033 | [2] -0.041 | [3] -0.016 | [4] -0.074 | [5] 0.105 | [6] -0.053 | [7] 0.046 | [8] 0.031 | IRAK-1-4 Inhibitor I 0.057 | ibrutinib 0.126 | [9] -0.027 | ralimetinib 0.108 | [10] -0.052 | [11] 0.082 | [12] -0.119 | [13] -0.149 | [14] 0.022 | [15] 0.018 | [16] 0.058

LMAN2L isoform 2 (UniProt Q9H0V9)
inactive: erlotinib 0.022 | [1] 0.005 | [2] 0.001 | [3] 0.038 | [4] 0.033 | [5] -0.021 | [6] 0.025 | [7] -0.008 | [8] -0.019 | IRAK-1-4 Inhibitor I 0.031 | ibrutinib -0.006 | [9] 0.023 | ralimetinib -0.001 | [10] -0.021 | [11] -0.021 | [12] -0.028 | [13] 0.021 | [14] 0.042 | [15] -0.003 | [16] 0.055

Next part

LEPROTL1 isoform 2 (UniProt O95214)
inactive: erlotinib 0.128 | [1] -0.366 | [2] -0.085 | [3] -0.1 | [4] -0.053 | [5] -0.034 | [6] 0.055 | IRAK-1-4 Inhibitor I 0.155 | ibrutinib 0.011 | [9] -0.019 | ralimetinib 0.083 | [10] 0.102 | [11] -0.033 | [13] -0.015 | [15] 0.01 | [16] 0.121

LCORL (UniProt Q8N3X6)
inactive: erlotinib 0.096 | [1] -0.258 | [2] -0.059 | [3] 0.121 | [5] 0.011 | [6] 0.134 | IRAK-1-4 Inhibitor I 0.017 | ralimetinib 0.069 | [10] -0.077 | [11] 0.112 | [15] -0.321

LNX2 (UniProt Q8N448)
inactive: erlotinib 0.068 | [1] -0.227 | [2] -0.216 | [3] -0.068 | [4] 0.027 | [6] 0 | [7] -0.129 | [8] 0.03 | ibrutinib 0.069 | [11] -0.187 | [12] -0.003 | [13] -0.065

LDHC (UniProt P07864)
inactive: erlotinib 0.02 | [1] -0.361 | [2] 0 | [3] -0.018 | [4] 0.056 | [5] -0.055 | [6] 0.015 | [7] -0.001 | [8] 0.019 | IRAK-1-4 Inhibitor I -0.041 | ibrutinib -0.125 | [9] -0.021 | ralimetinib 0.053 | [10] 0.055 | [11] 0.001 | [12] -0.058 | [13] 0 | [15] 0.076 | [16] 0.08

LIG3 (UniProt P49916)
inactive: erlotinib -0.003 | [1] 0.027 | [2] -0.04 | [3] 0.009 | [4] -0.006 | [5] 0.011 | [6] -0.013 | [7] 0 | [8] -0.036 | IRAK-1-4 Inhibitor I -0.035 | ibrutinib -0.006 | [9] 0.007 | ralimetinib 0.063 | [10] 0.023 | [11] -0.002 | [12] -0.018 | [13] 0.04 | [14] -0.015 | [15] 0.028 | [16] 0.015

LMO4 (UniProt P61968)
inactive: erlotinib -0.054 | [1] -0.1 | [2] -0.048 | [3] 0.089 | [5] 0.052 | [6] -0.096 | IRAK-1-4 Inhibitor I -0.034 | [9] -0.029 | ralimetinib -0.004 | [10] 0.045 | [11] 0.02 | [13] -0.126 | [14] 0.022 | [15] 0.017 | [16] 0.063

LMNB2 (UniProt Q03252)
inactive: erlotinib 0.047 | [1] 0.053 | [2] 0 | [3] 0.022 | [4] -0.019 | [5] 0.003 | [6] 0.047 | [7] 0.007 | [8] -0.022 | IRAK-1-4 Inhibitor I 0.012 | ibrutinib 0.043 | [9] -0.084 | ralimetinib 0.006 | [10] -0.007 | [11] -0.043 | [12] 0.08 | [13] -0.044 | [14] 0.017 | [15] 0.005 | [16] -0.003
